The target in the assay is T1, N-terminal-StrepII-tagged Csm2 of Streptococcus thermophilus (from plasmid pCsm2-Tag) (Streptococcus thermophilus).
T1 sequence: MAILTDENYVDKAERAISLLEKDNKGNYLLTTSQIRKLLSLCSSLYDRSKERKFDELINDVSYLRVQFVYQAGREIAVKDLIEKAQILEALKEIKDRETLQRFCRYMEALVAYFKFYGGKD
Kind of assay: co-purification.

Protein sequences, listed by entry. Tags and fused reporters are not part of them. Lines headed by an entry give the natural chain unless they say otherwise; changes in a name come on top.
UniProt A0A0A7HFE1, whole entry, looked up, stated change not applied: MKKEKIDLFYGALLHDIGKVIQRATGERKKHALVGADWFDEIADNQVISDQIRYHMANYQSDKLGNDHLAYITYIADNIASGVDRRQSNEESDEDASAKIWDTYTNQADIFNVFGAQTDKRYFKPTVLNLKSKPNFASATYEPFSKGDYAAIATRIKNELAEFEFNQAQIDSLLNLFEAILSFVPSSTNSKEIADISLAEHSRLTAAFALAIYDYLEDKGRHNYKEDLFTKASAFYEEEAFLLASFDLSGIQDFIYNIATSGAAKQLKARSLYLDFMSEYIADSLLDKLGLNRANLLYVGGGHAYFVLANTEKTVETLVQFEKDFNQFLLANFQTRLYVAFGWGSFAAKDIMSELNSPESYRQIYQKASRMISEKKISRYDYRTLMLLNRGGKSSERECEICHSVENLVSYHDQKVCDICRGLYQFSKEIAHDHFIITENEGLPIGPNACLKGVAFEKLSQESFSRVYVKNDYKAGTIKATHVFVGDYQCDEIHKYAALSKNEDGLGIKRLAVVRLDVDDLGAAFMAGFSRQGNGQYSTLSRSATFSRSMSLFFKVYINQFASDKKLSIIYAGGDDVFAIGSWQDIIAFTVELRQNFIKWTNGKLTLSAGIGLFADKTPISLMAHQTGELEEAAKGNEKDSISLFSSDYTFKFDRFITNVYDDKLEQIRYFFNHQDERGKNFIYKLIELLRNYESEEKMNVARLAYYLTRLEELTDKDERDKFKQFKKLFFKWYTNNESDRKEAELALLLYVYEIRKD

No constants are given. Whether binding was seen depends on the method and setting. Some binding calls cover weakened binding; strength is not graded here. Sequences can lack the tags named with a protein.

For “Cas10 D16A of Streptococcus thermophilus (DNase-defective subunit of the StCsm complex) (from UniProt A0A0A7HFE1 1-758) (enzyme)”, the binding entry was “binds”.

B1: Csm3 D33A of Streptococcus thermophilus (RNase-defective subunit of the StCsm complex) (enzyme, UniProt A0A0A7HIF0 1-220)
chain: MTFAKIKFSAQIRLETGLHIGGSDAFAAIGAIASPVIKDPITNIPIIPGSSLKGKMRTLLAKVYNEKVAEKPSDDSDILSRLFGNSKDKRFKMGRLIFRDAFLSNADELDSLGVRSYTEVKFENTIDRITAEANPRQIERAIRNSTFDFELIYEITDENENQVEEDFKVIRDGLKLLELDYLGGSGSRGYGKVAFEKLKATTVFGNYDVKTLNELLTAEV
In the case of B1, the binding entry was “binds”.
